{"source": "PubChem BioAssay AID445", "about": "(National Center for Advancing Translational Sciences (NCATS), 2006)", "note": "The list shows a part of the results. Shown are side measurements of this screen, not its main read-out; they come without a call. Compounds called inactive in the main read-out are mostly missing here. Words in brackets tell the shape of the fitted curve; partial curves, single points and poor fits give uncertain potencies."}
{"experiment": "IkB Signaling", "details": "ABC-DLBCL IkBa-CBG/CBR dual luciferase ratio (green luciferase fused to IkBa over red control in OCI-Ly3 lymphoma cells), 4 h; measured here: control luc red channel unless noted", "procedure,_shortened": "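Luminescence ratio of IκBα-fused green versus native red beetle luciferase in OCI-Ly3 cells, 4 h post-doxycycline with compound; red signal alone, scaled from basal (0%) to zero light (-100%), flagged nonspecific or cytotoxic effects.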"}
{"smiles": "CCCCn1c(=NC(=O)c2cc3ccccc3o2)c(C(=O)OCC)cc2c(=O)n3ccccc3nc21", "AC50": "20 µM [falling, partial curve]"}
{"smiles": "CCCn1nc(NS(=O)(=O)c2ccccc2)c2cc3ccccc3nc21", "AC50": "12.6 µM [falling, partial curve]"}
{"smiles": "COc1ccc(S(=O)(=O)N2CCSC2c2ccc(OC)c(OC)c2)cc1", "note": "(stereo not drawn)", "AC50": "39.8 µM [falling, single point]"}
{"smiles": "CCOC(=O)c1ccccc1NC(=O)CSc1nc2c(c(=O)n(C)c(=O)n2C)n1C", "AC50": "39.8 µM [rising, single point] [measured here: IkB-luc green channel]"}
{"smiles": "CC1CCN(S(=O)(=O)c2nnc(NC(=O)c3cccc(Br)c3)s2)CC1", "AC50": "3.98 µM [rising, single point]"}
{"smiles": "Cc1ccc(NC(=O)Cn2c(=O)n(CCC(=O)NCc3ccccc3Cl)c(=O)c3ccccc32)cc1", "AC50": "0.0158 µM [rising, full curve, poor fit]"}
{"smiles": "O=c1c(-c2cccs2)nc2cnc(Nc3ccccc3)nc2n1C[C@H]1CCCO1", "AC50": "3.98 µM [falling, single point] [measured here: IkB-luc green channel]"}
{"smiles": "CN(c1ccc(OCc2nnc(-c3ccccc3)o2)cc1)S(=O)(=O)c1ccccc1", "AC50": "25.1 µM [falling, partial curve]"}
{"smiles": "COc1ccc(CCn2c(C)cc(C(=O)CSc3nnc(N)s3)c2C)cc1", "AC50": "25.1 µM [falling, partial curve]"}
{"smiles": "O=C(Nc1ccc(F)c(Cl)c1)C1CCCN(c2cnccn2)C1", "note": "(stereo not drawn)", "AC50": "39.8 µM [falling, single point]"}
{"smiles": "COc1ccc(CC2C(=O)Nc3ccc(Br)cc32)cc1OC", "note": "(stereo not drawn)", "AC50": "2 µM [falling, partial curve]"}
{"smiles": "COc1ccc(S(=O)(=O)NCC(c2ccco2)N2CCN(c3ccc(F)cc3)CC2)cc1C", "note": "(stereo not drawn)", "AC50": "12.6 µM [falling, partial curve]"}
{"smiles": "CC(=O)N1CCCC1c1nc2ccccc2n1Cc1ccccc1C", "note": "(stereo not drawn)", "AC50": "7.94 µM [falling, full curve]"}
{"smiles": "CCc1ccc(NC(=O)CC2C(=O)N(c3cccc(C)c3)C(=O)N2Cc2ccco2)cc1", "note": "(stereo not drawn)", "AC50": "31.6 µM [falling, single point]"}
{"smiles": "COc1ccc(-c2cc(C(=O)N3CCc4ccccc4C3)no2)cc1OC", "AC50": "15.8 µM [falling, partial curve]"}
{"smiles": "c1ccc(-c2nc3nc4ccccc4nc3n2Cc2ccco2)cc1", "AC50": "20 µM [falling, partial curve]"}
{"smiles": "CC1CCN(S(=O)(=O)c2ccc3c(ccn3CCC(=O)NCc3ccc(N(C)C)cc3)c2)CC1", "AC50": "31.6 µM [falling, partial curve]"}
{"smiles": "COc1cccc2cc(C(=O)NCCc3c(C)[nH]c4ccc(F)cc34)c(=O)oc12", "AC50": "12.6 µM [falling, partial curve]"}
{"smiles": "O=C(Nc1cccc(Br)c1)c1cc2ccccc2o1", "AC50": "5.01 µM [falling, full curve]"}
{"smiles": "COc1ccc(S(=O)(=O)N(CC(=O)Nc2cccnc2)c2ccc(Cl)cc2)cc1", "AC50": "15.8 µM [falling, partial curve]"}
{"smiles": "Clc1cccc(-n2ncc3c(NCCCn4ccnc4)ncnc32)c1", "AC50": "15.8 µM [falling, partial curve]"}
{"smiles": "COc1ccc(NC(=O)Cn2c(=O)ccc3cc(S(=O)(=O)N4CCCC4)ccc32)cc1Cl", "AC50": "0.398 µM [falling, partial curve]"}
{"smiles": "Cc1cccn2c(=O)c(C(=O)NCCc3ccc(S(N)(=O)=O)cc3)c(O)nc12", "AC50": "3.98 µM [rising, partial curve, poor fit]"}
{"smiles": "O=C(CCOc1ccccc1)N(Cc1cccnc1)c1nc2c(F)cccc2s1", "AC50": "39.8 µM [falling, single point]"}
{"smiles": "CCCCn1c(NCc2ccc(N(C)C)cc2)nc2ccccc21", "AC50": "25.1 µM [falling, partial curve]"}
{"smiles": "CCN1CCc2nc3sc(C(=O)c4ccc(F)cc4)c(N)c3cc2C1", "AC50": "1.26 µM [falling, full curve]"}
{"smiles": "Cc1ccc(C(C)C)c(OCC(=O)Nc2ccc(Cl)cn2)c1", "AC50": "7.94 µM [falling, partial curve]"}
{"smiles": "COc1ccc(NC(=O)c2c(NCc3cccc(OC)c3)sc3c2CCCC3)cc1", "AC50": "10 µM [falling, partial curve]"}
{"smiles": "Cc1ccc2occ(CC(=O)N(Cc3ccc(C(C)C)cc3)C3CCS(=O)(=O)C3)c2c1", "note": "(stereo not drawn)", "AC50": "31.6 µM [falling, single point]"}
{"smiles": "O=C(CCC1N=C2c3ccccc3N=C(SCc3ccccc3F)N2C1=O)NCc1ccc(F)cc1", "note": "(stereo not drawn)", "AC50": "25.1 µM [falling, partial curve]"}
{"smiles": "CCOC(=O)c1ccc(-n2[nH]c(-c3ccccc3)cc2=O)cc1", "AC50": "3.16 µM [falling, full curve]"}
{"smiles": "Cc1ccc(-c2nc(N)n(C(=O)Cc3ccccc3)n2)cc1", "AC50": "39.8 µM [falling, single point]"}
{"smiles": "CC1=C(c2ccc(Cl)cc2)S(=O)(=O)N=C1N1CCC(C(=O)NCc2ccccc2F)CC1", "AC50": "15.8 µM [falling, partial curve]"}
{"smiles": "CCCCCCOC(=O)Sc1nc2ccccc2o1", "AC50": "10 µM [falling, partial curve]"}
{"smiles": "COc1ccc(CCNc2nc3c(-c4cccc(C)c4)nnn3c3ccccc23)cc1OC", "AC50": "1.26 µM [falling, full curve]"}
{"smiles": "O=C(Nc1ccc2c(c1)OCO2)C1CCN(Cc2cnn(-c3ccccc3)c2-n2cccc2)CC1", "AC50": "15.8 µM [falling, partial curve]"}
{"smiles": "CCc1ccc(S(=O)(=O)c2nnn3c2nc(N2CCCC2)c2sccc23)cc1", "AC50": "1.26 µM [rising, full curve]"}
{"smiles": "Cc1ccccc1C1C=C(c2ccc(Cl)cc2)Nc2nnnn21", "note": "(stereo not drawn)", "AC50": "39.8 µM [falling, single point]"}
{"smiles": "Cc1nn(-c2ccc(N3CCCCC3)nn2)c(C)c1CCC(=O)NCc1ccccc1F", "AC50": "15.8 µM [falling, single point]"}
{"smiles": "COc1ccc(-n2nc3c(N4CCCC(C(=O)NCCc5ccc(C)cc5)C4)nnc(C)c3c2C)cc1", "note": "(stereo not drawn)", "AC50": "7.94 µM [falling, partial curve]"}
{"smiles": "COCCNC(=O)C(=O)NCC(c1cccnc1)N1CCN(c2ccccc2F)CC1", "note": "(stereo not drawn)", "AC50": "25.1 µM [falling, single point]"}
{"smiles": "COc1ccccc1Nc1nc2ccc(Cl)cc2nc1-n1nc(C)cc1C", "AC50": "15.8 µM [falling, partial curve, poor fit]"}
{"smiles": "COc1ccc(NC(=O)c2nc3nc(C)cc(C(F)F)n3n2)c(C)c1", "AC50": "10 µM [rising, partial curve]"}
{"smiles": "CCOC(=O)c1ccc(NC(=O)CC2C(=O)N(c3ccc(F)cc3)C(=O)N2Cc2ccc3c(c2)OCO3)cc1", "note": "(stereo not drawn)", "AC50": "39.8 µM [falling, single point]"}
{"smiles": "CCOC(=O)c1cccc(NC(=O)C2CCN(S(=O)(=O)c3cn(C)cn3)CC2)c1", "AC50": "12.6 µM [falling, partial curve]"}
{"smiles": "COc1cc(-c2nnc(CSc3nc4ccccc4s3)o2)cc(OC)c1OC", "AC50": "20 µM [falling, partial curve]"}
{"smiles": "Cc1ccc(C)c(NS(=O)(=O)c2cc3c(cc2Cl)NC(=O)CO3)c1", "AC50": "2.51 µM [rising, partial curve]"}
{"smiles": "CCc1ccc(NC(=O)N2CC(C)Oc3ccc(C)cc32)cc1", "note": "(stereo not drawn)", "AC50": "10 µM [falling, partial curve]"}
{"smiles": "COCCCNc1ncnc2c1cnn2-c1ccc(F)cc1", "AC50": "0.794 µM [rising, full curve]"}
{"smiles": "COc1cc2ccccc2cc1C(=O)Nc1ccc2oc(-c3cccc(Cl)c3Cl)nc2c1", "AC50": "0.316 µM [falling, full curve, poor fit]"}
{"smiles": "COc1cccc(-c2cc(C(=O)Nc3ccc(C)cc3)[nH]n2)c1", "AC50": "1.26 µM [falling, partial curve]"}
{"smiles": "Cc1cc(C)n(-c2nc3ccccc3nc2Nc2cc(C(=O)O)ccc2C)n1", "AC50": "3.16 µM [falling, partial curve]"}
{"smiles": "O=C(Nc1ccc2c(c1)OCO2)C1CCN(C(=O)CSc2ncnc3ccccc23)CC1", "AC50": "20 µM [falling, partial curve]"}
{"smiles": "Cc1ccc(CN2CCN(CC(=O)NCc3ccccc3Cl)C2=O)cc1", "AC50": "10 µM [falling, single point]"}
{"smiles": "CC1CC(C)CN(C(=O)COC(=O)c2cc3ccccc3cc2O)C1", "note": "(stereo not drawn)", "AC50": "25.1 µM [falling, single point]"}
{"smiles": "CCOc1ccc(C(=O)N2CCCCC2CCN2CCOCC2)cc1", "note": "(stereo not drawn)", "AC50": "1 µM [rising, partial curve]"}
{"smiles": "COc1ccc(NC(=O)c2sc3nc(C)c(C(=O)Nc4ccc(Cl)cc4)c(-c4ccc(Br)cc4)c3c2N)cc1", "AC50": "3.98 µM [falling, partial curve]"}
{"smiles": "O=C(c1ccc2c(c1)N(Cc1ccccc1)C(=O)c1ccccc1S2(=O)=O)N1CCN(c2ccccn2)CC1", "AC50": "39.8 µM [falling, single point]"}
{"smiles": "CCOC(=O)c1cccc(NS(=O)(=O)c2cn(C)c(C)n2)c1", "AC50": "0.0398 µM [rising, full curve, poor fit]"}
{"smiles": "COC(=O)c1ccccc1NC(=O)Cn1c(=O)n(-c2ccc(Cl)cc2)c(=O)c2c(C)c(C)sc21", "AC50": "0.501 µM [falling, full curve]"}
{"smiles": "Cc1ccc(NC(=O)CSc2nc3c([nH]c4ccccc43)c(=O)n2-c2ccccc2)c(C)c1", "AC50": "0.2 µM [falling, full curve]"}
{"smiles": "Cc1ccc(N2CCN(C(=S)c3ccc(N(C)C)cc3)CC2)cc1", "AC50": "3.98 µM [falling, partial curve]"}
{"smiles": "COc1ccc(S(=O)(=O)Nc2cc3c(cc2NCc2ccccc2)n(C)c(=O)n3C)cc1OC", "AC50": "3.16 µM [rising, partial curve]"}
